These are yes or no findings as the source states them, for the method shown. Some results given as binding are weak or reduced against the parent protein; the word gives no strength.
Molecular target: YFP-DAT additionally tagged with an extracellular hemagglutinin (HA) epitope (YFP-HA-DAT) (human) (UniProt Q01959)
Assay: SDS-resistant oligomers on SDS-PAGE and western blot; PAE cells stably expressing the tagged transporter, vehicle (DMSO) or 20 µM AIM-100 for 2 hr at 37°C (also after cocaine, dopamine, amphetamine, modafinil, KRCA-0008, CHC siRNA, at 4°C or 20°C); lysis in TGH buffer, Laemmli buffer (2% SDS, 5% β-mercaptoethanol) 5 min at 95°C, 7.5% SDS-PAGE, blot with GFP antibody; oligomers (O) against monomers (M)

By UniProt entry, the sequences of proteins in these tests, tags left out.
UniProt Q01959, whole entry: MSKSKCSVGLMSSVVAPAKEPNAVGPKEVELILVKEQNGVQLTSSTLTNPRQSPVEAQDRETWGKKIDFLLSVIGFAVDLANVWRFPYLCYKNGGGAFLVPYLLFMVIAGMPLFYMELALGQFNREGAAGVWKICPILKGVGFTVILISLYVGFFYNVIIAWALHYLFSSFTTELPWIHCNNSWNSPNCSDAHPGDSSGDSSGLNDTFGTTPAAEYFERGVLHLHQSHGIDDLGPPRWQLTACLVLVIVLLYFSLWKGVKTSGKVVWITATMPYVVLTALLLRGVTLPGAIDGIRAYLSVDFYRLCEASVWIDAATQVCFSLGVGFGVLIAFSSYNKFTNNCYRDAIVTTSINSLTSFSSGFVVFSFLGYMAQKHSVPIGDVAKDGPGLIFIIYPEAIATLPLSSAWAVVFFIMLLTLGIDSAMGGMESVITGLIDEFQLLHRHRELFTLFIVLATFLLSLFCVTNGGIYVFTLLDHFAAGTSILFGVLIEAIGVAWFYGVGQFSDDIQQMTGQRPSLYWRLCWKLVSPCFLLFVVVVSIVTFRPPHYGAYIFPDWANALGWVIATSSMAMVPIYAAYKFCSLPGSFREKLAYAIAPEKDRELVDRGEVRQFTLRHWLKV

YFP-DAT additionally tagged with an extracellular hemagglutinin (HA) epitope (YFP-HA-DAT) (from UniProt Q01959 1-620)
binding: binds
